Results are given in words; binding and its absence hold for the method and conditions named. Some entries that bind do so weakly or less than the wild type.
Key:
[1] = target: recombinant biotinylated human CD47 extracellular domain fused to CD4d3+4-biotin (human); test: flow cytometry on hCD47-coated beads
[2] = target: recombinant biotinylated human CD47 extracellular domain fused to CD4d3+4-biotin (human); test: flow cytometry, saturation binding on hCD47-coated beads

Amino acid sequences for entries named in this document (tags omitted). Residues count along the entry.
UniProt P78324, residues 31-373: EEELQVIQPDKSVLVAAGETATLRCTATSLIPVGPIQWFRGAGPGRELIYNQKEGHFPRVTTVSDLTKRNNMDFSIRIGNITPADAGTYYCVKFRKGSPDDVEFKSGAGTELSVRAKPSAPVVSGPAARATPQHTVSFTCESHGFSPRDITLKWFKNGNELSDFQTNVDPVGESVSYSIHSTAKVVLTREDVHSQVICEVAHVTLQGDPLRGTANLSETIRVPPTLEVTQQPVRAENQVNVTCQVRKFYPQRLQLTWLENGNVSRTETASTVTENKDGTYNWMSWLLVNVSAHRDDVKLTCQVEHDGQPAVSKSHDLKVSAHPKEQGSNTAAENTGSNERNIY

binding [1]: binds
binding [2]: binds
Substance: soluble human SIRPα extracellular domain fused to GST (SIRPα1-GST) (from UniProt P78324 31-373) (receptor)

— patent US20100316570A1
